# Measurements from PMC3591284.
# Sequences of proteins named here, by UniProt entry; tags and fusion partners are left off.
# UniProt Q12873: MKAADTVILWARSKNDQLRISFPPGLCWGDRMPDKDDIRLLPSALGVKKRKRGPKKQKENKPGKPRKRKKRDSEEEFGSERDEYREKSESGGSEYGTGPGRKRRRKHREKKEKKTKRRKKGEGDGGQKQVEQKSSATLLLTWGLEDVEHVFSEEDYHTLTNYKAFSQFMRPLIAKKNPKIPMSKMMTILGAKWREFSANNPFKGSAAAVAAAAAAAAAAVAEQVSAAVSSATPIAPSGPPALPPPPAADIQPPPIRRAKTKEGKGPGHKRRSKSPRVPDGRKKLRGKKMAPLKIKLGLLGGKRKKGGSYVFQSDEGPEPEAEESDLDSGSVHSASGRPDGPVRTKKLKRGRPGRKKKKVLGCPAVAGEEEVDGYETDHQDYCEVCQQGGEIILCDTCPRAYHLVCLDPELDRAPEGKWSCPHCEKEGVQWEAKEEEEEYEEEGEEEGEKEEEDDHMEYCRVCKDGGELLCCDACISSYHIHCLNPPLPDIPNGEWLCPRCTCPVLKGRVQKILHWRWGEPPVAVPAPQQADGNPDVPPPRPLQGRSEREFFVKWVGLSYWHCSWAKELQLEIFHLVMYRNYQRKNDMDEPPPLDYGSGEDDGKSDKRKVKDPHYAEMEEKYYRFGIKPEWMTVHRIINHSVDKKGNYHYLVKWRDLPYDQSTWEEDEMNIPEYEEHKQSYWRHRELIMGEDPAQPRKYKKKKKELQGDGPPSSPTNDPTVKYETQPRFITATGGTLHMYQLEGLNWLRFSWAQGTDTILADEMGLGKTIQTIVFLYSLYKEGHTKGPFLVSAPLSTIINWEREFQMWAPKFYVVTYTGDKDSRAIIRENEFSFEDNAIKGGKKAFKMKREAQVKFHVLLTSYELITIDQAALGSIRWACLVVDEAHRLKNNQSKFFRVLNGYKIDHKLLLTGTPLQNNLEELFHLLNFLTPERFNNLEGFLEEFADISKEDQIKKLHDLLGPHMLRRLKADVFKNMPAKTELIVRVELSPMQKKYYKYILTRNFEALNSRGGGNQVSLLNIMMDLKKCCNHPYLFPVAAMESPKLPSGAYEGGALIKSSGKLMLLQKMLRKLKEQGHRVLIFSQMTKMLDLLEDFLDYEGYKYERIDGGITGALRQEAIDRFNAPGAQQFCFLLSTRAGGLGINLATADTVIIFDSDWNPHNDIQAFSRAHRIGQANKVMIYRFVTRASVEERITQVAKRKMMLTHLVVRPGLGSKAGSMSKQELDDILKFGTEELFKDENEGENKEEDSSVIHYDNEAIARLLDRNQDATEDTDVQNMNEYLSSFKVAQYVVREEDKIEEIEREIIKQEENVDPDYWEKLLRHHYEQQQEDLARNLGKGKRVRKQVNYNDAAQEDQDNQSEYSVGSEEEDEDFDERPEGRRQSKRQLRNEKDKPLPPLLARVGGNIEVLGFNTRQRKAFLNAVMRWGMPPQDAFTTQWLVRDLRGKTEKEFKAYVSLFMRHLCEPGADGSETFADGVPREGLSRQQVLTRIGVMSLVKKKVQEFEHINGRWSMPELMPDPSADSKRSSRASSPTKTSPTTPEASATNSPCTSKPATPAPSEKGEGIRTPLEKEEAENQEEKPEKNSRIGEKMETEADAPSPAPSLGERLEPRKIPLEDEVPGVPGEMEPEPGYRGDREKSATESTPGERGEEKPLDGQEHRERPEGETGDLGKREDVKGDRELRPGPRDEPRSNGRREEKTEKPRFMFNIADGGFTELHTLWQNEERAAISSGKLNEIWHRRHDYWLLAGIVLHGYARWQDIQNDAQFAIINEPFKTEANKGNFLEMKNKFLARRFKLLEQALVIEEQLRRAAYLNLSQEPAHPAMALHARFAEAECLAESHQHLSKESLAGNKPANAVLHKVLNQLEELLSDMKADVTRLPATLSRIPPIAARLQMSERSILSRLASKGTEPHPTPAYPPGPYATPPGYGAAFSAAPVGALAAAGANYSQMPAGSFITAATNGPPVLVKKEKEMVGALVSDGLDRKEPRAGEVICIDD
# No constants are given. Whether binding was seen depends on the method and setting. In cells and extracts the contact can be indirect. These calls come from enrichment with a bait or labelling near it, and not all partners need be listed.
# Biological target: T1, Protein arginine methyltransferase 4 (PRMT4), endogenous in HEK293 cells (human (endogenous in HEK293)) (UniProt Q86X55)
# T1 sequence: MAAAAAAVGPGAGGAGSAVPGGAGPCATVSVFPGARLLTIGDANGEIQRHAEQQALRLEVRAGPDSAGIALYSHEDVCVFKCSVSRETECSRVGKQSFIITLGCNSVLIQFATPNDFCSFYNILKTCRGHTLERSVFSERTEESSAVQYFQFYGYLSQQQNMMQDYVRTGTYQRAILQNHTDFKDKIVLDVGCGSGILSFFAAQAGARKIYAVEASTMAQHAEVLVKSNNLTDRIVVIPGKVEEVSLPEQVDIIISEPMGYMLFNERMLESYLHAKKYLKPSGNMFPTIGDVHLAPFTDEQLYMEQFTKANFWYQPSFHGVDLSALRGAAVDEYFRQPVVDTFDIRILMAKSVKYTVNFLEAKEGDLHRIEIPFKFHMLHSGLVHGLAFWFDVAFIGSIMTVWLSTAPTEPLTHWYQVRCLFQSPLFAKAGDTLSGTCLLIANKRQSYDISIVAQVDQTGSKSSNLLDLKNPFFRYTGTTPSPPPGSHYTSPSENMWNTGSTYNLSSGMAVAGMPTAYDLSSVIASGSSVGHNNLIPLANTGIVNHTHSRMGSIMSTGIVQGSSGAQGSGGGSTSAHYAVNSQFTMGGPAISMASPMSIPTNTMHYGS
# Assay: affinity purification with mass spectrometry; IP with polyclonal anti-PRMT4 antibodies from PRMT4-containing MonoQ fractions of HEK293 extract against a bead control; silver-stained bands excised, MALDI-TOF peptide mass fingerprint
substance,measurement,value
"Mi2α, endogenous in HEK293 cells (from UniProt Q12873 1-2000) (enzyme)",binding,binds
